In US12662403B2, “Photoswitchable guanidinium compounds for removal of oxyanions from liquid solutions” (UT-Battelle, LLC, priority 2021, dated 2026):

Assay: Photoswitched sulfate precipitation-dissolution cycle in DMSO
From the text: At higher concentrations in DMSO, the 2PyDIG receptor binds to sulfate as the 1:2 complex (Eq. 4 in Table 1) and precipitates as illustrated in FIG. 12. The precipitate instantly forms upon addition of two equivalents of sulfate, putatively assigned as the [(E,E-2PyDIG)(SO4)2]^2− species. […] The present work was able to indirectly determine the amount of precipitated 2PyDIG and relative ratio of PyDIG to sulfate of the precipitate. Upon addition of sulfate to the E,E-2PyDIG solution, 73.7% of the E,E-PyDIG receptor precipitates according to a ^1H NMR spectrum of the supernatant. Adding barium chloride to the separated supernatant precipitated the non-interacting sulfate, affording a ratio of sulfate to PyDIG of 2.05. The estimated percentage of sulfate precipitated by gravimetric analysis is 63%. Photoirradiating the suspension redissolves the solid, where the E,E-PyDIG undergoes photoisomerization to the Z,Z form, ejecting bound sulfate in the process, as summarized in Eq. 6. Over time, the free Z,Z-PyDIG in solution reverts to the E,E through a thermal relaxation process, where the [(E,E-2PyDIG)(SO4)2]^3− species is again precipitated.

## N=C(N/N=C/c1ccccn1)N/N=C/c1ccccn1.O=S(=O)(O)C(F)(F)F [E,E-2PyDIG, bis(2-((E)-pyridin-2-ylmethylene)hydrazineyl)methaniminium trifluoromethanesulfonate]
10 mM in DMSO, two equivalents of sulfate, 1H NMR of supernatant
  receptor precipitated upon addition of sulfate: 73.7%
Barium chloride added to separated supernatant
  ratio of sulfate to PyDIG of the precipitate: 2.05
Gravimetric analysis
  estimated percentage of sulfate precipitated: 63%
